Data taken from patent US9975911B2, “Antibacterial compounds and biological applications thereof” (LABORATOIRE BIODIM, priority 2012, dated 2018).
Where a name gives a salt, the structure may show the parent alone. Read-outs that look alike come from different tables or passages of the source. Some results were stated once for a whole list of compounds, not compound by compound. Some compounds share one range, which may span the group rather than tell each member.

Protein sequences, listed by entry. Tags and fused reporters are not part of them.
UniProt P63224, whole entry: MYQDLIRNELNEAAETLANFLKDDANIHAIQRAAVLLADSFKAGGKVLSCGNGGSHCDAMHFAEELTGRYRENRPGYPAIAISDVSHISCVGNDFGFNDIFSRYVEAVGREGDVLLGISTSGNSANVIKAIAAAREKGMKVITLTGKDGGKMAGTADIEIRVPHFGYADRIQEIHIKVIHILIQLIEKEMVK

Biological target: GmhA of E. coli (Escherichia coli, UniProt P63224)
Assay: Inhibition of the enzymatic activity of GmhA (luminescent assay)
Type: biochemical
Procedure: Inhibition of the Enzymatic Activity of GmhA (Luminescent Assay):
The assay buffer “AB” contained 50 mM Hepes pH7.5, 1 mM MnCl2, 25 mM KCl, 0.012% Triton-X100, 1 mM dithiothreitol (DTT) and 0.1 μM Myelin basic protein (MBP). The following components were added in a white polystyrene Costar plate up to a final volume of 30 μL: 10 μL inhibitor dissolved in DMSO/water 50/50, and 20 μL GmhA of E. coli in AB. After 30 min of pre-incubation at room temperature, 30 μL of Substrates mix in AB were added in each well to a final volume of 60 μL. This reaction mixture was then composed of 2 nM GmhA, 3 μM sedoheptulose-7-phosphate (Sigma), 3 μM ATP (Sigma) and 50 nM HldE of E. coli in assay buffer. After 30 minutes of incubation at room temperature, 100 μL of the revelation mix were added to a final volume of 160 μL, including the following constituents at the respective final concentrations: 10000 light units/mL luciferase (Sigma), 20 μM D-luciferin (Sigma), 100 μM N-acetylcysteamine (Aldrich). Luminescence intensity was immediately measured on Luminoskan (Thermofisher) and converted into inhibition percentages. For IC50 determinations, the inhibitor was tested at 6 to 10 different concentrations, and the related inhibitions were fitted to a classical Langmuir equilibrium model using XLFIT (IDBS).

[1] = lower bound in nM, upper bound in μM; read-out: IC50 on GmhA of E. coli

## O=CN(O)C[C@H](O)[C@H](O)[C@H](O)CP(=O)(O)O [Example 5, [(2S,3S,4S)-5-(Formyl-hydroxy-amino)-2,3,4-trihydroxy-pentyl]-phosphonic acid sodium salt]
[1]
  IC50: 500 to 100000 nM

## O=CN(O)C[C@H](O)[C@H](O)[C@H](O)C(O)C(O)P(=O)(O)O (stereo partly drawn) [Example 6]
read-out: IC50 on GmhA of E. coli; lower bound in nM, upper bound in μM
  IC50: 500 to 100000 nM

## O=CN(O)C[C@H](O)C[C@H](O)CCP(=O)(O)O [Example 15, ((3S,5R)-3,5-dihydroxy-6-(N-hydroxyformamido)-hexyl)phosphonic acid]
[1]
  IC50: 500 to 100000 nM
